The source of these data is PMC8763920 (Nature Communications, 2022).

Some peptides are written in HELM: one residue between dots, names in brackets for other building blocks, links after the first $.

The series is described as follows: general procedure: Fmoc solid-phase peptide synthesis; rink amide resin; HATU/DIPEA. The conditions noted are these: cyclisation step.
In turn, “PEPTIDE1{E.[XL].I.L.D.[XL].H}|CHEM1{[mBDT]}$PEPTIDE1,CHEM1,2:R3-1:R1|PEPTIDE1,CHEM1,6:R3-1:R2$$$V2.0” gave a cyclisation yield of 64%.

“PEPTIDE1{[FITC].[bAla].K.K.Y.A.K.Q.L.A.D.[XL].I.I.K.[XL].A.T.E.[am]}|CHEM1{[mBDMT]}$PEPTIDE1,CHEM1,12:R3-1:R1|PEPTIDE1,CHEM1,16:R3-1:R2$$$V2.0”: the cyclisation yield was found to be 74%.

On to “PEPTIDE1{[ac].E.N.P.E.[XL].I.L.D.[XL].H.V.Q.R.V.M.[am]}|CHEM1{[SC5S]}$PEPTIDE1,CHEM1,6:R3-1:R1|PEPTIDE1,CHEM1,10:R3-1:R2$$$V2.0”, for which the cyclisation yield amounted to 55%.

“PEPTIDE1{[ac].E.N.P.E.[XL].I.L.D.[XL].H.V.Q.R.V.M.[am]}|CHEM1{[SC6S]}$PEPTIDE1,CHEM1,6:R3-1:R1|PEPTIDE1,CHEM1,10:R3-1:R2$$$V2.0” yielded a cyclisation yield of 59%.

In the case of “PEPTIDE1{[ac].E.N.P.E.[XL].I.L.D.[XL].H.V.Q.R.V.M.[am]}|CHEM1{[SC7S]}$PEPTIDE1,CHEM1,6:R3-1:R1|PEPTIDE1,CHEM1,10:R3-1:R2$$$V2.0”, the cyclisation yield is 49%.

“PEPTIDE1{[ac].E.N.P.E.[XL].I.L.D.[XL].H.V.Q.R.V.M.[am]}|CHEM1{[SC8S]}$PEPTIDE1,CHEM1,6:R3-1:R1|PEPTIDE1,CHEM1,10:R3-1:R2$$$V2.0” showed a cyclisation yield of 52%.

On to “PEPTIDE1{[ac].E.N.P.E.[XL].I.L.D.[XL].H.V.Q.R.V.M.[am]}|CHEM1{[mBDMT]}$PEPTIDE1,CHEM1,6:R3-1:R1|PEPTIDE1,CHEM1,10:R3-1:R2$$$V2.0”, for which the cyclisation yield stood at 63%.

The substance “PEPTIDE1{[ac].E.N.P.E.[XL].I.L.D.[XL].H.V.Q.R.V.M.[am]}|CHEM1{[pBDMT]}$PEPTIDE1,CHEM1,6:R3-1:R1|PEPTIDE1,CHEM1,10:R3-1:R2$$$V2.0” yielded a cyclisation yield of 52%.

On to “PEPTIDE1{[ac].Q.S.Q.Q.T.F.[XL-S].N.L.W.R.L.L.[XL-S].Q.N.[am]}|CHEM1{[C7DT]}$PEPTIDE1,CHEM1,8:R3-1:R1|PEPTIDE1,CHEM1,15:R3-1:R2$$$V2.0”, for which the cyclisation yield worked out at 65%.

Consider “PEPTIDE1{[ac].Q.S.Q.Q.T.F.[XL-S].N.L.W.R.L.L.[XL-S].Q.N.[am]}|CHEM1{[C8DT]}$PEPTIDE1,CHEM1,8:R3-1:R1|PEPTIDE1,CHEM1,15:R3-1:R2$$$V2.0”, for which the cyclisation yield was found to be 69%.

In turn, “PEPTIDE1{[ac].Q.S.Q.Q.T.F.[XL].N.L.W.R.L.L.[XL].Q.N.[am]}|CHEM1{[BDMT14]}$PEPTIDE1,CHEM1,8:R3-1:R1|PEPTIDE1,CHEM1,15:R3-1:R2$$$V2.0” displayed a cyclisation yield of 74%.

The substance “PEPTIDE1{[ac].Q.S.Q.Q.T.F.[XL].N.L.W.R.L.L.[XL].Q.N.[am]}|CHEM1{[BPDMT]}$PEPTIDE1,CHEM1,8:R3-1:R1|PEPTIDE1,CHEM1,15:R3-1:R2$$$V2.0” displayed a cyclisation yield of 55%.
